These are yes or no findings as the source states them, for the method shown. Some entries that bind do so weakly or less than the wild type. Tags and fused reporters may be left off the sequences shown.
T1: YjeF-N-GST fragment of Edc3 (S. cerevisiae) (UniProt P39998)
T1 sequence: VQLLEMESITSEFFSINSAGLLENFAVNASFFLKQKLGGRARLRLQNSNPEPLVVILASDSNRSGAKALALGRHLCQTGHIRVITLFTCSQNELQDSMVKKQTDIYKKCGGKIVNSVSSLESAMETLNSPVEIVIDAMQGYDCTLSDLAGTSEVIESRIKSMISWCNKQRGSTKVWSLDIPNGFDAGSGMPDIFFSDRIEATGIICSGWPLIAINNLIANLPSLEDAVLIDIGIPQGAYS


Experiments:
[1] = target: T1, YjeF-N-GST fragment of Edc3 (S. cerevisiae); test: pull-down; GST-tagged Edc3 fragments immobilised on glutathione sepharose beads, purified Sbp1 added; 200 pmol of each protein; 4 °C, 2 h; 50 mM HEPES pH 7, 100 mM NaCl, 1 mM DTT, 2 mM MnCl2, 2 mM MgCl2, 1% Triton-X100, 10% glycerol, 0.25 mg/mL RNase A, 10 mg/mL BSA; western blot; both purified
[2] = target: T1, YjeF-N-GST fragment of Edc3 (S. cerevisiae); test: pull-down; eluted YjeF-N-GST, Edc3-mCherry and with or without His-Sbp1-FLAG incubated with glutathione sepharose beads; 100 pmol of each protein; 1X protein-protein interaction buffer, 4 °C, 2 h; western blot; both purified

| Binder | binding [1] | binding [2] |
| --- | --- | --- |
| His-Sbp1-FLAG (natural protein, S. cerevisiae, UniProt P10080 1-294, looked up, Sbp1, RGG-motif containing translation repressor of S. cerevisiae; wild type; also called wild-type Sbp1; purified Sbp1; source: E. coli BL21, purified (Ni-NTA agarose, batch; RNase A added during purification); not shown: His, N-terminal, kept; FLAG, C-terminal, kept) MSAEIEEATNAVNNLSINDSEQQPRAPTHKTVIDPEDTIFIGNVAHECTEDDLKQLFVEEFGDEVSVEIPIKEHTDGHIPASKHALVKFPTKIDFDNIKENYDTKVVKDREIHIKRARTPGQMQRGGFRGRGGFRGRGGFRGGFRGGYRGGFRGRGNFRGRGGARGGFNGQKREKIPLDQMERSKDTLYINNVPFKATKEEVAEFFGTDADSISLPMRKMRDQHTGRIFTSDSANRGMAFVTFSGENVDIEAKAEEFKGKVFGDRELTVDVAVIRPENDEEEIEQETGSEEKQE | binds | – |
| His-Edc3-mCherry (protein, UniProt P39998 1-551) MSQFVGFGVQVELKDGKLIQGKIAKATSKGLTLNDVQFGDGGKSQAFKVRASRLKDLKVLTVASQSGKRKQQRQQQQQNDYNQNRGEHIDWQDDDVSKIKQQEDFDFQRNLGMFNKKDVFAQLKQNDDILPENRLQGHNRKQTQLQQNNYQNDELVIPDAKKDSWNKISSRNEQSTHQSQPQQDAQDDLVLEDDEHEYDVDDIDDPKYLPITQSLNITHLIHSATNSPSINDKTKGTVINDKDQVLAKLGQMIISQSRSNSTSLPAANKQTTIRSKNTKQNIPMATPVQLLEMESITSEFFSINSAGLLENFAVNASFFLKQKLGGRARLRLQNSNPEPLVVILASDSNRSGAKALALGRHLCQTGHIRVITLFTCSQNELQDSMVKKQTDIYKKCGGKIVNSVSSLESAMETLNSPVEIVIDAMQGYDCTLSDLAGTSEVIESRIKSMISWCNKQRGSTKVWSLDIPNGFDAGSGMPDIFFSDRIEATGIICSGWPLIAINNLIANLPSLEDAVLIDIGIPQGAYSQRTSLRKFQNCDLFVTDGSLLLDL | – | binds |
